Consider 67 compounds from PubChem BioAssay AID662 (National Center for Advancing Translational Sciences (NCATS), 2007).

Some of the results follow. Further columns of the screen follow, without active or inactive calls. Compounds called inactive in the main read-out are mostly missing here. The note in brackets gives the kind of curve behind each potency; many fits are weak.

This test is described as follows: Cell signaling CRE-BLA (Fsk stim). The following applies: CHO CRE-bla reporter (cAMP response element driving beta-lactamase), forskolin EC10, beta-lactamase ratio; measured here: 460 nm blue channel. A digest of the protocol:
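Titrated compounds plus EC10 NKH 477 on CHO CRE-bla cells, 3 h, 37 °C. CCF4, 2 h RT. Ratio 460/530 nm → AC50.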
`COc1cc(CN2CCN(c3cccc(C)c3C)CC2)cc(Br)c1O`: the AC50 is 0.00398 µM [falling, full curve, poor fit]. Consider `CCOC(=O)c1c(C)nc2c3ccccc3ccn12`, for which the AC50 was 3.16 µM [rising, full curve]. With `CCOC(=O)c1c(NC(=O)c2cccs2)sc(C(=O)N2CCOCC2)c1C` the figure was 3.16 µM [rising, full curve, poor fit]; with `COC(=O)CSc1nc(NCC(C)C)nc(N2CCOCC2)n1`, 7.94 µM [rising, partial curve]. The result for `Brc1ccc2oc3c(N4CCOCC4)ncnc3c2c1` reads 6.31 µM [rising, partial curve]; that for `O=C(Cn1c(C(=O)NCc2ccco2)cc2sccc21)c1ccccc1`, 15.8 µM [falling, partial curve]; that for `O=c1[nH]c(Cn2nnc(-c3ccccc3)n2)nc2scc(-c3ccccc3)c12`, 5.01 µM [falling, single point]. Consider `COc1cccc2c(=O)c(C(=O)NCc3cccs3)c[nH]c12`, for which the AC50 was 12.6 µM [rising, partial curve]. The result for `CC(C)NC(=O)COC(=O)c1ccc(O)cc1` reads 0.1 µM [falling, single point]. The result for `COc1ccc(-c2noc(COc3ccc4c(c3)OCO4)n2)cc1OC` reads 6.31 µM [rising, partial curve, poor fit]; that for `CN1CCN(c2ncc3nc(-c4cccc(C#N)c4)c(=O)n(Cc4ccc(F)cc4)c3n2)CC1`, 5.01 µM [rising, partial curve]; that for `COc1ccc2[nH]cc(CCNc3cc(-c4cccnc4)ncn3)c2c1`, 12.6 µM [rising, partial curve, poor fit].

Regarding `Cc1c(C)c2ccc(OCc3ccc(C(=O)O)o3)c(C)c2oc1=O`, the AC50 was 25.1 µM [rising, single point]. With `CCOC(=O)C1CCN(c2ncnc3c2oc2ccccc23)CC1` the figure was 5.01 µM [rising, partial curve]; with `COc1ccc(-c2noc(-c3cc(Cl)ccc3Cl)n2)cc1OC`, 0.631 µM [rising, full curve, poor fit]; with `CCCSc1nnc(N2C(=O)CC(c3ccsc3)C3=C2CCCC3=O)s1` (configuration not stated), 12.6 µM [rising, single point]. With `Cc1nc2c(C(=O)NCCC3=CCCCC3)c[nH]n2c(=O)c1Cl` the figure was 7.94 µM [rising, partial curve]; with `Oc1ccc2c(c1)oc1cc(O)ccc12`, 10 µM [falling, partial curve]; with `CCOc1ccccc1N(CC(=O)NC1CCCCC1)S(C)(=O)=O`, 1 µM [rising, single point].

For the compound `CCn1c(=O)cc(OCC(=O)N(C)C2CCCCC2)c2ccccc21`, the AC50 was 7.94 µM [rising, partial curve].

`COc1cc2c(cc1NC(=O)CN1CCN(S(=O)(=O)c3ccc(F)cc3)CC1)oc1ccccc12`: the AC50 is 15.8 µM [falling, partial curve, poor fit].

On to `c1ccc2c(c1)CCN(c1nc3ccccc3n3cnnc13)C2`, for which the AC50 is 0.398 µM [rising, full curve].

Regarding `COC(=O)CSc1nnc(CNC(=O)Cc2ccccc2)n1C`, the AC50 was 25.1 µM [rising, single point]. The result for `Cc1cnc(CNc2nc(-c3ccccc3C)nc3ccccc23)cn1` reads 25.1 µM [rising, single point]; that for `COc1cc2cc3c4c(cc(OC)c(OC)c4c2cc1OC)CCN3C`, 3.16 µM [rising, partial curve]. With `O=C(Nc1c(F)cc(F)cc1Br)c1ccco1` the figure was 12.6 µM [rising, single point]; with `COC(=O)C1=[N+]([O-])OC(C(=O)OC)C1c1c[nH]c2ccccc12` (configuration not stated), 0.158 µM [falling, partial curve]. Consider `COC(=O)c1cc(NC(=O)c2ccoc2C)cc(C(=O)OC)c1`, for which the AC50 was 12.6 µM [rising, single point]. The result for `COc1cccc2cc(-c3csc(CCn4nc(C)cc4C)n3)c(=O)oc12` reads 2 µM [falling, partial curve]; that for `C=CS(=O)(=O)c1ccc(Oc2ccc(S(=O)(=O)C=C)cc2)cc1`, 1.26 µM [falling, full curve]; that for `COC(=O)[C@@]1(Cc2ccc(OC)cc2)[C@H]2c3cc(C(=O)N4CCCC4)n(Cc4ccc(OC)c(OC)c4)c3C[C@H]2CN1C(=O)c1ccccc1`, 0.158 µM [rising, full curve]. With `CC(=O)NCCNc1nc(-c2ccccc2C(F)(F)F)nc2ccccc12` the figure was 12.6 µM [rising, partial curve]; with `CCn1cc(C(=O)NCc2ccccc2OC)c(=O)c2cc(S(=O)(=O)N(C)C)ccc21`, 2 µM [rising, full curve].

With `CC(=O)Oc1ccc2cc(-c3nc4ccccc4n3C)c(=O)oc2c1`, the AC50 was 2.51 µM [rising, full curve]. As for `CS(=O)(=O)Nc1cccc(-c2ccc3ncnc(NCc4cccnc4)c3c2)c1`, the AC50 is 12.6 µM [rising, single point]. The result for `CCCn1c(-c2ccc(F)cc2)nc2c(N3CCN(CCn4ccnc4)CC3)nc(C)nc21` reads 10 µM [rising, single point]; that for `CCn1c(SCC(=O)Nc2cc(C)on2)nc2sc3c(c2c1=O)CCCC3`, 1 µM [rising, full curve].

For the compound `CC(=O)Nc1nc2n(n1)C(c1ccc(F)cc1)C=C(c1ccccc1)N2` (configuration not stated), the AC50 is 12.6 µM [rising, single point].

`O=C(Nc1ccc(C(F)(F)F)cc1Cl)c1ccc(Cn2cc(Br)cn2)o1`: the AC50 was 25.1 µM [rising, single point]. In the case of `CCS(=O)(=O)N1CCN(c2cccc(C)c2C)CC1`, the AC50 was 0.398 µM [rising, partial curve, poor fit]. With `CCC(=O)N1CCN(c2ccc(NC(=O)c3cc4ccccc4o3)cc2Cl)CC1` the figure was 12.6 µM [falling, partial curve]; with `Cc1ccc(C(=O)Nc2ccccc2C(=O)NC(CC(=O)O)C(=O)O)cc1` (configuration not stated), 3.98 µM [falling, partial curve].

As to `COCCCNC(=O)c1cc2c(-c3ccc(Cl)cc3)nn(C)c2s1`, the AC50 was 2.51 µM [rising, full curve].

As to `O=C(Nc1cc(C(F)(F)F)ccc1N1CCOCC1)c1n[nH]c(=O)c2ccccc12`, the AC50 is 1.26 µM [rising, full curve]. The result for `COc1cc(-c2nnc3sc(Cc4ccccc4)nn23)cc(OC)c1OC` reads 2.51 µM [rising, partial curve, poor fit]; that for `CCn1c(SCC(=O)C(C)(C)C)nnc1-c1cccnc1`, 0.0501 µM [falling, full curve, poor fit]; that for `Cc1nc(-n2nnc3ccccc32)c2c3c(sc2n1)CCCC3`, 3.98 µM [falling, single point].

In the case of `CCNc1ncc2nc(-c3cccc(C#N)c3)c(=O)n(CCC#N)c2n1`, the AC50 is 3.16 µM [rising, full curve]. The result for `COC(=O)C1CCN(C(=O)c2sc3nc(-c4ccccc4)cn3c2C)CC1` reads 10 µM [rising, single point]; that for `c1ccc(-c2oc3ncnc(NCCCN4CCOCC4)c3c2-c2ccccc2)cc1`, 2.51 µM [rising, partial curve]; that for `COC(=O)C1=C(C)N(c2cccc3ccccc23)C(=O)C1`, 12.6 µM [falling, partial curve, poor fit]. The result for `COc1ccc(-c2nc3cnc(Oc4cccc(Cl)c4)nc3n(CCC#N)c2=O)cc1` reads 7.94 µM [rising, partial curve].

For `Cc1ccc2cc(CN(Cc3cccs3)C(=O)c3ccco3)c3nnnn3c2c1C`, the AC50 is 3.16 µM [rising, partial curve].

Turning to `C=C(C)Cn1c(CCNC(=O)CCC)nc2ccccc21`, the AC50 was 0.00794 µM [falling, full curve, poor fit]. With `Cn1cnc2c(sc3nc(N4CCOCC4)c4c(c32)CC(C)(C)OC4)c1=O` the figure was 12.6 µM [rising, partial curve]; with `Cc1noc(C)c1C(=O)Nc1nnc(-c2ccccc2)s1`, 25.1 µM [rising, single point]. The result for `O=S(=O)(c1ccc2nc(-c3ccco3)c(-c3ccco3)nc2c1)N1CCOCC1` reads 12.6 µM [rising, single point]. With `CCOc1cccc2cc(-c3cn4cc(C)ccc4n3)c(=O)oc12` the figure was 0.2 µM [rising, full curve]. Turning to `Cc1noc(C)c1S(=O)(=O)N1CCC2(CC1)OCCO2`, the AC50 is 3.98 µM [rising, single point]. With `COC(=O)c1ccc(C(NC(=O)OCc2ccccc2)/C(C)=C/[C@@H](C)C(=O)NCCc2c[nH]c3ccc(OC)cc23)cc1` (some centres not stated) the figure was 20 µM [falling, single point]; with `Cc1ccccc1CN1CCNC1=O`, 2.51 µM [rising, partial curve]. With `COc1ccc2c(c1OC)C(=O)N(c1nccs1)C2` the figure was 20 µM [rising, partial curve]; with `Cc1ccc(CNC(=O)CCS(=O)(=O)c2ccc(Br)s2)o1`, 0.158 µM [falling, full curve]; with `FC(F)(F)c1ccccc1-c1nc(Nc2ccncc2)c2ccccc2n1`, 0.794 µM [rising, partial curve]. Take `CCOC(=O)CSc1nc2ccc(NC(C)=O)cc2s1`: the AC50 is 1.58 µM [rising, partial curve]. With `O=C(Nc1ccc(Cl)cc1C(=O)NCc1cccnc1)c1ccco1` the figure was 20 µM [rising, partial curve, poor fit]; with `O=c1c(-c2ccc(F)cc2)nc2cnc(N3CCOCC3)nc2n1Cc1cccs1`, 3.16 µM [rising, partial curve].

What is called AC50 is the midpoint of the concentration-response curve, whichever way the signal moves.
